Experimental data published in article PMC11816266.
Results are given in words; binding and its absence hold for the method and conditions named. Binding seen in cells or lysates may run through a third protein. Some results given as binding are weak or reduced against the parent protein; the word gives no strength.

Sequences of proteins named here, by UniProt entry; tags and fusion partners are left off. Residues count along the entry.
UniProt Q9NZM1: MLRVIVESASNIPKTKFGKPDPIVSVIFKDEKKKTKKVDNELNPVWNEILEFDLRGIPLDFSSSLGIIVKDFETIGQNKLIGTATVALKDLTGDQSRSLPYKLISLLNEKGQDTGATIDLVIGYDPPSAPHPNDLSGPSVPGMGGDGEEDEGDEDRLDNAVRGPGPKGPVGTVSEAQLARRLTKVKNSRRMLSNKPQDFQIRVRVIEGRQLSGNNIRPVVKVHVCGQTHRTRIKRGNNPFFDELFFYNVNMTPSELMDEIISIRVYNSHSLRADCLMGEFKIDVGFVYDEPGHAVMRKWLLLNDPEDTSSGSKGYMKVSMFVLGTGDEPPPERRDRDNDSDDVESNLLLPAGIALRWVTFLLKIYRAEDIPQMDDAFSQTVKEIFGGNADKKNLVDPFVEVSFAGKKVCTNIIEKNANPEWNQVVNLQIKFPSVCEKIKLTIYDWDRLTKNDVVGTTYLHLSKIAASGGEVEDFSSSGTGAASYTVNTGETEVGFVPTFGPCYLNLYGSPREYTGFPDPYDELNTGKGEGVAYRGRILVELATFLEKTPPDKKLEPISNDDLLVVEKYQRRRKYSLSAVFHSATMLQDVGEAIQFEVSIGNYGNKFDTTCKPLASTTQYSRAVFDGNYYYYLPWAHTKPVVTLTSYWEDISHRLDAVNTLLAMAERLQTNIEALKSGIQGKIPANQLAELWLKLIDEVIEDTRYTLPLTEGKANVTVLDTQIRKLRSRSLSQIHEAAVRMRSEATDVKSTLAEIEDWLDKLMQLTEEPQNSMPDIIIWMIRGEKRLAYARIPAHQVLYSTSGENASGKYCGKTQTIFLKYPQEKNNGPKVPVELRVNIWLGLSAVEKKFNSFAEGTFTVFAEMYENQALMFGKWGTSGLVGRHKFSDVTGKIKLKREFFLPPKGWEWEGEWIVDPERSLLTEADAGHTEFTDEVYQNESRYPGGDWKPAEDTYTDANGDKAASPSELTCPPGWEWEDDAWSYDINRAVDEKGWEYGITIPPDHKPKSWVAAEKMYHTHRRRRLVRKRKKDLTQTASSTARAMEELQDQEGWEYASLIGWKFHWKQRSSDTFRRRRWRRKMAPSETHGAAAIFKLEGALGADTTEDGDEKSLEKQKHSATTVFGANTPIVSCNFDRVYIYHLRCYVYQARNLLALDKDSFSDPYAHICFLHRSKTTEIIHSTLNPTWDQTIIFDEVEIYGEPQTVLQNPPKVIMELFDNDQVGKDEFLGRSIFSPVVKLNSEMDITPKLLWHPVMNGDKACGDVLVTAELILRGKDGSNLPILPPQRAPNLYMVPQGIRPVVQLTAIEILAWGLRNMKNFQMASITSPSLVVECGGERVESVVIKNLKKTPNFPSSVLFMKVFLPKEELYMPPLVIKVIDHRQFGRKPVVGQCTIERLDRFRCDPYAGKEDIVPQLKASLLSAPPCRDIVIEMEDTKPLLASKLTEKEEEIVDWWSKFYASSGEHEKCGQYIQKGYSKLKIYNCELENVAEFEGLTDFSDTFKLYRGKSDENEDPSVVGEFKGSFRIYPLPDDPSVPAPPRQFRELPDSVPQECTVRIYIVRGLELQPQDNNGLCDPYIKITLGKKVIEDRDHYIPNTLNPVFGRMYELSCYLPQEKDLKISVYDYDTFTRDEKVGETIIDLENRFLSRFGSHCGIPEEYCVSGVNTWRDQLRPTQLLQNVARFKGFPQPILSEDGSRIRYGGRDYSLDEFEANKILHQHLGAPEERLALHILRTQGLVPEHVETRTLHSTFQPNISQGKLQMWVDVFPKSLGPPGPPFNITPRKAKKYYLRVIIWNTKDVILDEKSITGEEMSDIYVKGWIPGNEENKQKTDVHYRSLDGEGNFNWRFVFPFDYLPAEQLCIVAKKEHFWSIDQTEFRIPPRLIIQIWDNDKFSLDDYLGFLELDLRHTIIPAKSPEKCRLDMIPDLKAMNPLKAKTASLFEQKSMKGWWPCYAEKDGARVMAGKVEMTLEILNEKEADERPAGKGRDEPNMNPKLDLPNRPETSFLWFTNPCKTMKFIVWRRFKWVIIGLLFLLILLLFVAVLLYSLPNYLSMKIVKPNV
UniProt Q9NZQ7, residues 19-290: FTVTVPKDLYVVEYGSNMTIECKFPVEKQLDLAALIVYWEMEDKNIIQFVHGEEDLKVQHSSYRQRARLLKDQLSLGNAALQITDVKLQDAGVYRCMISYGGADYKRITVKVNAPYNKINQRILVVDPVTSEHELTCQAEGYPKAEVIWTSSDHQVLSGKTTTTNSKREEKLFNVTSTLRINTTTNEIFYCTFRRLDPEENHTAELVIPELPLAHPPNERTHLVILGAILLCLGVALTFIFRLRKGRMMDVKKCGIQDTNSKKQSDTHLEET
UniProt P35968, residues 20-1356: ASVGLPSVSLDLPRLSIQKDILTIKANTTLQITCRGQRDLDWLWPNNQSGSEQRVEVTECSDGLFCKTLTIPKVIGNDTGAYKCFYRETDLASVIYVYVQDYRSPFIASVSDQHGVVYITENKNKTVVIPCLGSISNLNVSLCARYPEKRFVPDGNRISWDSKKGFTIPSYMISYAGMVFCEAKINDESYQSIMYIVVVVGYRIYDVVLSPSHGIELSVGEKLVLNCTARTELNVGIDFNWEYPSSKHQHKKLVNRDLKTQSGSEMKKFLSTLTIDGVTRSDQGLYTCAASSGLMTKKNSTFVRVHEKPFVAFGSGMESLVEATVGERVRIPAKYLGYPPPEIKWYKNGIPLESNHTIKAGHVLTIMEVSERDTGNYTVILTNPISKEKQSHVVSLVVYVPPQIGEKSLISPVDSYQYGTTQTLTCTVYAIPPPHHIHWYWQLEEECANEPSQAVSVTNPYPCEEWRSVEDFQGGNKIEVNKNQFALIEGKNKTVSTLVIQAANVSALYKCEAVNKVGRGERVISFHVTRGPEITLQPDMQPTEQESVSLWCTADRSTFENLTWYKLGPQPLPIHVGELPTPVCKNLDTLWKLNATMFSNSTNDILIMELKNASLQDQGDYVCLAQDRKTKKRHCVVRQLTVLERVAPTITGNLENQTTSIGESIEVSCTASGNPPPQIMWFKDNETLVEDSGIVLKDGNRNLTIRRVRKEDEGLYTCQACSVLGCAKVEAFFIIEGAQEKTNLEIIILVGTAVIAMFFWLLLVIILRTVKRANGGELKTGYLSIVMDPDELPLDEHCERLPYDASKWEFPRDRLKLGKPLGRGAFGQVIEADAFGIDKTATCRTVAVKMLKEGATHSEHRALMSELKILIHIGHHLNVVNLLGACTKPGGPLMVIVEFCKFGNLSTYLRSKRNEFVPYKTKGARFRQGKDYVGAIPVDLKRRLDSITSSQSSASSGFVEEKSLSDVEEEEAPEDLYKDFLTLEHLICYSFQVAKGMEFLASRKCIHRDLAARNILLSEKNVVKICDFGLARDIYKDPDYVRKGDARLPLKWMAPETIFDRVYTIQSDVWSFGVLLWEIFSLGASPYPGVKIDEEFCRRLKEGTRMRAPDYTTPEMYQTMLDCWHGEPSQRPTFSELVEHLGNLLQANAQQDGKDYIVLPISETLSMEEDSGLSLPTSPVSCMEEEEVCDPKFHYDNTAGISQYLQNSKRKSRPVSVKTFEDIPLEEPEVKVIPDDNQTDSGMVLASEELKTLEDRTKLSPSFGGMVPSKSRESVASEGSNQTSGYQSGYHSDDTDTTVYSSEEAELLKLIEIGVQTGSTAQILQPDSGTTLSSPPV

Experiments:
[1] = target: Flag-MYOF (Myoferlin, human, 3×FLAG) (human) (UniProt Q9NZM1); assay: co-IP; RKO cells stably expressing the Flag-tagged bait; lysis in 0.5% NP-40 lysis buffer (50 mmol/L Tris-HCl pH 8.0, 150 mmol/L NaCl, 0.5% Triton X-100); 2 mg protein in 1 mL; anti-Flag antibody and Protein A + G magnetic beads overnight at 4 °C; IgG as control; Western blot; for Flag-MYOF also after apatinib or PBS for 24 h (interaction reduced with apatinib)
[2] = target: Flag-PD-L1 (CD274, human, 3×FLAG) (human) (UniProt Q9NZQ7); assay: as above

Row | binding [1] | binding [2] | Substance
1 | binds |  | VEGFR2 (KDR) (from UniProt P35968 20-1356) (receptor)
2 |  | binds | Myoferlin (MYOF), endogenous in RKO cells (from UniProt Q9NZM1 1-2061)
